Measured data: PubChem BioAssay AID652243 (Drosophila RNAi Screening Center, 2013)

- Test: 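Fly genes required for human androgen receptor driven transcription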 (primary screen)
- Cells: Drosophila S2R+ cells
- Reagent: long dsRNA against Drosophila genes
- Timing: 72 h (48 h, then 24 h hormone)
- Treatment: synthetic androgen R1881 at 10 nM for 24 h
- Detection: 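Per-well raw luminescence of the androgen-driven firefly reporter and of the Renilla control, two replicates each, without normalisation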
- Scale: firefly reporter light: higher = more light from androgen-responsive reporter; Renilla control light: higher = more constitutive control signal (cell number, transfection)
- Hit rule: 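Hit when the log firefly-to-Renilla ratio dropped or increased by a fixed fold versus the mean of GFP or LacZ controls across duplicate plates; lowering cut given as 1.5 and as 3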
- Meaning of the calls: active = hit: reporter lowered or raised; inactive = no hit
The deposit covers about 24,000 reagents; below is a random part of those that have a named target and a result. Of all reagents, 246 (1%) are marked active. 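Plates not normalised; calls are printed but the firefly/Renilla ratio behind them is not deposited; fold cut for lowering reported inconsistently.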 Raw values vary from plate to plate and are shown uncorrected. Entries without a mark were called inactive. Reagent sequences are not shown. The record does not give: the amount of reagent.

Arp8 (Actin-related protein 8) [SID104199851] → firefly reporter light, replicate 1: 1.19e5; firefly reporter light, replicate 2: 1.19e5; Renilla control light, replicate 1: 7.05e5; Renilla control light, replicate 2: 6.67e5
Arp8 (Actin-related protein 8) [SID104204976] → firefly reporter light, replicate 1: 2.79e5; firefly reporter light, replicate 2: 2.80e5; Renilla control light, replicate 1: 8.36e5; Renilla control light, replicate 2: 7.21e5
CG40583 (retired record) [SID104216349] → firefly reporter light, replicate 1: 7.91e5; firefly reporter light, replicate 2: 7.94e5; Renilla control light, replicate 1: 2.14e6; Renilla control light, replicate 2: 1.68e6
CG15211 [SID104199449] → firefly reporter light, replicate 1: 3.41e5; firefly reporter light, replicate 2: 3.77e5; Renilla control light, replicate 1: 2.59e6; Renilla control light, replicate 2: 2.40e6
CG7276 [SID104190589] → firefly reporter light, replicate 1: 2.66e5; firefly reporter light, replicate 2: 1.93e5; Renilla control light, replicate 1: 2.81e6; Renilla control light, replicate 2: 2.37e6
CG14785 [SID104198396] → firefly reporter light, replicate 1: 80701; firefly reporter light, replicate 2: 89006; Renilla control light, replicate 1: 4.07e5; Renilla control light, replicate 2: 3.03e5
CG31517 [SID104192802] → firefly reporter light, replicate 1: 99734; firefly reporter light, replicate 2: 1.04e5; Renilla control light, replicate 1: 1.81e5; Renilla control light, replicate 2: 1.88e5
Hpd (4-hydroxyphenylpyruvate dioxygenase) [SID104191462] → firefly reporter light, replicate 1: 42054; firefly reporter light, replicate 2: 47821; Renilla control light, replicate 1: 1.97e5; Renilla control light, replicate 2: 1.60e5
Hpd (4-hydroxyphenylpyruvate dioxygenase) [SID104206183] → firefly reporter light, replicate 1: 2.16e5; firefly reporter light, replicate 2: 1.54e5; Renilla control light, replicate 1: 4.07e5; Renilla control light, replicate 2: 6.86e5
Sirt2 (Sirtuin 2) [SID104195506] → firefly reporter light, replicate 1: 2.45e5; firefly reporter light, replicate 2: 3.69e5; Renilla control light, replicate 1: 3.76e6; Renilla control light, replicate 2: 3.88e6
Sirt2 (Sirtuin 2) [SID104205508] → firefly reporter light, replicate 1: 4.41e5; firefly reporter light, replicate 2: 3.38e5; Renilla control light, replicate 1: 7.47e5; Renilla control light, replicate 2: 5.53e5
CG12231 [SID104199237] → firefly reporter light, replicate 1: 30145; firefly reporter light, replicate 2: 25246; Renilla control light, replicate 1: 1.31e5; Renilla control light, replicate 2: 1.51e5
Snm1 [SID104191922] → firefly reporter light, replicate 1: 33040; firefly reporter light, replicate 2: 68608; Renilla control light, replicate 1: 3.27e5; Renilla control light, replicate 2: 2.85e5
Tsr1 (Tsr1 ribosome assembly factor) [SID104191613] → firefly reporter light, replicate 1: 34300; firefly reporter light, replicate 2: 24650; Renilla control light, replicate 1: 2.39e5; Renilla control light, replicate 2: 2.99e5
CG10469 [SID104189521] → firefly reporter light, replicate 1: 1.11e5; firefly reporter light, replicate 2: 1.01e5; Renilla control light, replicate 1: 1.54e6; Renilla control light, replicate 2: 2.05e6
CG10469 [SID104204188] → firefly reporter light, replicate 1: 1.28e6; firefly reporter light, replicate 2: 9.56e5; Renilla control light, replicate 1: 1.17e6; Renilla control light, replicate 2: 1.12e6
CG10317 [SID104194021] → firefly reporter light, replicate 1: 2.26e5; firefly reporter light, replicate 2: 2.03e5; Renilla control light, replicate 1: 2.56e6; Renilla control light, replicate 2: 2.32e6
CG17030 [SID104188295] → firefly reporter light, replicate 1: 1.48e5; firefly reporter light, replicate 2: 2.18e5; Renilla control light, replicate 1: 2.20e6; Renilla control light, replicate 2: 2.61e6
Z600 [SID104191109] → firefly reporter light, replicate 1: 2.38e5; firefly reporter light, replicate 2: 1.68e5; Renilla control light, replicate 1: 2.84e6; Renilla control light, replicate 2: 2.20e6
CycY (Cyclin Y) [SID104182212] → firefly reporter light, replicate 1: 9.63e5; firefly reporter light, replicate 2: 9.37e5; Renilla control light, replicate 1: 2.66e6; Renilla control light, replicate 2: 2.37e6
CycY (Cyclin Y) [SID104203638] → firefly reporter light, replicate 1: 6.73e5; firefly reporter light, replicate 2: 7.92e5; Renilla control light, replicate 1: 8.78e5; Renilla control light, replicate 2: 1.15e6
CycY (Cyclin Y) [SID104216593] → firefly reporter light, replicate 1: 2.84e5; firefly reporter light, replicate 2: 3.63e5; Renilla control light, replicate 1: 1.11e6; Renilla control light, replicate 2: 8.79e5

An excerpt taken from the entries so far, for reference:
CG10317 [SID104194021] → firefly reporter light, replicate 1: 2.26e5; firefly reporter light, replicate 2: 2.03e5; Renilla control light, replicate 1: 2.56e6; Renilla control light, replicate 2: 2.32e6
CG17030 [SID104188295] → firefly reporter light, replicate 1: 1.48e5; firefly reporter light, replicate 2: 2.18e5; Renilla control light, replicate 1: 2.20e6; Renilla control light, replicate 2: 2.61e6
Z600 [SID104191109] → firefly reporter light, replicate 1: 2.38e5; firefly reporter light, replicate 2: 1.68e5; Renilla control light, replicate 1: 2.84e6; Renilla control light, replicate 2: 2.20e6
